# In doi:10.1101/2022.02.23.481653:
# Numbering of substitutions follows the chain as printed. These are yes or no findings as the source states them, for the method shown. For some assays here: Binding seen in cells or lysates may run through a third protein. Some entries that bind do so weakly or less than the wild type. For some assays here: Where a sequence is shown, tags or fusion partners need not be part of it.
# T1: msfGFP-SEPT7Gmut1 (SEPT7 W269A, H279D) (human) (UniProt Q16181)
# T1 sequence: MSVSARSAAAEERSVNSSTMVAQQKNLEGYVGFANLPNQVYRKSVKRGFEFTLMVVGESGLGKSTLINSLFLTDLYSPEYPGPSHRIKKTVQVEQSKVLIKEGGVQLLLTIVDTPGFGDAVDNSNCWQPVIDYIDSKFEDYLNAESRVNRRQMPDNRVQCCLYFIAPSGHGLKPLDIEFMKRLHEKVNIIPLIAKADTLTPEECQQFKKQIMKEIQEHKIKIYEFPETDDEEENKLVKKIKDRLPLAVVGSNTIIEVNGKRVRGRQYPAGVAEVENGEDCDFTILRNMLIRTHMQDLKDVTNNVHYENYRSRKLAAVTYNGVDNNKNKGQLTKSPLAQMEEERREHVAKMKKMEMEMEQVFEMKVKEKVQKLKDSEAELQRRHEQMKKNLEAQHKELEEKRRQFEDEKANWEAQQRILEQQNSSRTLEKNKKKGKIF
# T2: msfGFP-SEPT7Gmut2 (SEPT7 H279D) (human) (UniProt Q16181)
# T2 sequence: T1 sequence with A269W
# T3: SEPT7 (endogenous, U2OS) (human (endogenous in U2OS)) (UniProt Q16181)
# T3 sequence: T1 sequence with A269W, D279H
# T4: recombinant human septin hexamers with wild-type SEPT2-msfGFP (SEPT2-SEPT6-SEPT7-SEPT7-SEPT6-SEPT2) (human) (UniProt Q15019)
# T4 sequence 1: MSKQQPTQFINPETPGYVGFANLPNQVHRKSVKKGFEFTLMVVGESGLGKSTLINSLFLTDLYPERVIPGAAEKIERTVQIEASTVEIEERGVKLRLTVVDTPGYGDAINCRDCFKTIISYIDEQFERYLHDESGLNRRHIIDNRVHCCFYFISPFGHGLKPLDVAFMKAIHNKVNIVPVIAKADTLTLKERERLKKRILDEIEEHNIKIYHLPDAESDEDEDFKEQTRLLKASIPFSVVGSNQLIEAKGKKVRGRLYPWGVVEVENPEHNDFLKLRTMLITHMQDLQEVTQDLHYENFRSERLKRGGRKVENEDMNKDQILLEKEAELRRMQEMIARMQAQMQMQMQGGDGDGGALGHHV
# T4 sequence 2: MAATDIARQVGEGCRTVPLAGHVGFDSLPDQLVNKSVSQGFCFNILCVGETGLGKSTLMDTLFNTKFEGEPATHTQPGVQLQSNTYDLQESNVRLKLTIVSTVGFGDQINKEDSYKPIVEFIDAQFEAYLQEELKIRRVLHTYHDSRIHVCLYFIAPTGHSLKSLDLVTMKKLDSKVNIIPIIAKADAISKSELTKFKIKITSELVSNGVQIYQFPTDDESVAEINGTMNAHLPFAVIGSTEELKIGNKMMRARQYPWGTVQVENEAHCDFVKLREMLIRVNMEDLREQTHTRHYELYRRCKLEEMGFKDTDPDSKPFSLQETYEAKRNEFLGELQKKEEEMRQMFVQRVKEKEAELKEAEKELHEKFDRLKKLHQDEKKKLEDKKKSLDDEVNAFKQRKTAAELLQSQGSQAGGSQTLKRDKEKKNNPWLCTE
# T4 sequence 3: T1 sequence with A269W, D279H
# T5: SEPT9_i3-β10 and SEPT9_i3-β11 (wild-type SEPT9 isoform 3 fused to GFP strand β10 or β11) (human), Q9UHD8
# T5 chain: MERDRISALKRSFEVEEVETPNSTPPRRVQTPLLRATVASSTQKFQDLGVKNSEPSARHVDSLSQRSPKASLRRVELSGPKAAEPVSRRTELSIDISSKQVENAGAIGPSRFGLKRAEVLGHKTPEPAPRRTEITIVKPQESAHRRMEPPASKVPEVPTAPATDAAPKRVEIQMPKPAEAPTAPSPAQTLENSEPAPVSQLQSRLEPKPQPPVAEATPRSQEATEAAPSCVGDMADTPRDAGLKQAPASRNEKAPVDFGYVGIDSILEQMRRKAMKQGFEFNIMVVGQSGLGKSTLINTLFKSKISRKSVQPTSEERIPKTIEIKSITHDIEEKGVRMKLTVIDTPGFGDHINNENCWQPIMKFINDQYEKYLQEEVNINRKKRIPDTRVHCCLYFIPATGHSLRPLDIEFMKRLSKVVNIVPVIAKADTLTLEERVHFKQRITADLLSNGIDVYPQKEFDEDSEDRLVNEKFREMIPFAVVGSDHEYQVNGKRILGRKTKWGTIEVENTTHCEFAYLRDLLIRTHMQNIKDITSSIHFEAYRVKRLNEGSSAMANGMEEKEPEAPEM
# B1: SEPT9 (endogenous, U2OS) (protein, UniProt Q9UHD8 1-586)
# chain: MKKSYSGGTRTSSGRLRRLGDSSGPALKRSFEVEEVETPNSTPPRRVQTPLLRATVASSTQKFQDLGVKNSEPSARHVDSLSQRSPKASLRRVELSGPKAAEPVSRRTELSIDISSKQVENAGAIGPSRFGLKRAEVLGHKTPEPAPRRTEITIVKPQESAHRRMEPPASKVPEVPTAPATDAAPKRVEIQMPKPAEAPTAPSPAQTLENSEPAPVSQLQSRLEPKPQPPVAEATPRSQEATEAAPSCVGDMADTPRDAGLKQAPASRNEKAPVDFGYVGIDSILEQMRRKAMKQGFEFNIMVVGQSGLGKSTLINTLFKSKISRKSVQPTSEERIPKTIEIKSITHDIEEKGVRMKLTVIDTPGFGDHINNENCWQPIMKFINDQYEKYLQEEVNINRKKRIPDTRVHCCLYFIPATGHSLRPLDIEFMKRLSKVVNIVPVIAKADTLTLEERVHFKQRITADLLSNGIDVYPQKEFDEDSEDRLVNEKFREMIPFAVVGSDHEYQVNGKRILGRKTKWGTIEVENTTHCEFAYLRDLLIRTHMQNIKDITSSIHFEAYRVKRLNEGSSAMANGMEEKEPEAPEM
# B2: recombinant human septin hexamers with wild-type SEPT2-msfGFP (SEPT2-SEPT6-SEPT7-SEPT7-SEPT6-SEPT2) (complex, UniProt Q15019;Q14141;Q16181)
# chain 1: T4 sequence 1
# chain 2: T4 sequence 2
# chain 3: T1 sequence with A269W, D279H
# B3: SEPT9_i3-β10 and SEPT9_i3-β11 (wild-type SEPT9 isoform 3 fused to GFP strand β10 or β11), Q9UHD8-2 1-568 (protein)
# chain: T5 chain
# Legend:
# [1] = molecular target: T1, msfGFP-SEPT7Gmut1 (SEPT7 W269A, H279D) (human); assay: native gel or EMSA
# [2] = molecular target: T2, msfGFP-SEPT7Gmut2 (SEPT7 H279D) (human); assay: native gel or EMSA
# [3] = molecular target: T3, SEPT7 (endogenous, U2OS) (human (endogenous in U2OS)); assay: native gel or EMSA
# [4] = molecular target: T4, recombinant human septin hexamers with wild-type SEPT2-msfGFP (SEPT2-SEPT6-SEPT7-SEPT7-SEPT6-SEPT2) (human); assay: fluorescence microscopy of reconstituted septin filaments
# [5] = molecular target: T5, SEPT9_i3-β10 and SEPT9_i3-β11 …; assay: split reporter; conditions: remark: other sources report otherwise
binder,measurement,setting,value
B1,binding,[1],no binding
same,binding,[2],binds
same,binding,[3],binds
B2,binding,[4],binds
B3,binding,[5],binds
